Measured values as given in paper PMC4125160, “Neurotoxicity and Mode of Action of N, N-Diethyl-Meta-Toluamide (DEET)” (PLoS ONE, 2014).

Tested on: housefly larval central nervous system
Experiment: Neurophysiological recordings of CNS nerve discharge in housefly larvae
Conditions: Musca domestica; inhibition of nerve discharge; read-out: EC50, inhibitory effect on the CNS
Protocol: Neurophysiological recordings were performed on the central and peripheral nervous systems of larval Musca domestica. Glass pipette electrodes were pulled from borosilicate glass capillaries on a P-1000 Flaming/Brown micropipette puller (Sutter Instrument, Novato CA, USA). For CNS recordings, it was first excised from the larvae and placed in a separate dish with physiological saline (200 µL) containing: 157 mM NaCl, 3 mM KCl, 2 mM CaCl2, and 4 mM HEPES, pH = 7.25. The CNS was manually transected posterior to the cerebral lobes to disrupt the blood-brain barrier and enhance chemical penetration. Any convenient peripheral nerve trunks were pulled into a recording suction electrode. […] Each concentration was recorded for 3–5 min prior to the addition of the next drug concentration. Mean spike frequencies for each concentration were used to construct concentration-response curves to determine EC50 values (EC50 = concentration of drug to elicit half maximal response, positive Hill slope), and were calculated by nonlinear regression (variable slope) using GraphPad Prism (GraphPad Software, San Diego, CA, USA) in a manner similar to that for AChE inhibition. […]

How did the EC50 turn out when `CCN(CC)CC(=O)Nc1c(C)cccc1C` [Lidocaine, lidocaine] was run?
Its EC50 is 340 µM.
